Experimental data from USRE47221E1, “Tricyclic compounds” (AbbVie Inc., priority 2009, dated 2019).

Sequences of proteins named here, by UniProt entry; tags and fusion partners are left off. Residues count along the entry.
UniProt P52333, 811-1103 limits assumed: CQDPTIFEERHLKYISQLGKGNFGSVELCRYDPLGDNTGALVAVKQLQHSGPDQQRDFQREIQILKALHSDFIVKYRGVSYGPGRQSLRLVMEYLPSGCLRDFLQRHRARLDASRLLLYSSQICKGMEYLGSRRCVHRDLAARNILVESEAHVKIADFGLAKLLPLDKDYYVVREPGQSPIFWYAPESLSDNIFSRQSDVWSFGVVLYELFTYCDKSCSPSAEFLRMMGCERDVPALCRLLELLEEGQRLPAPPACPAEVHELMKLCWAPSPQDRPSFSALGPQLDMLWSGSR

Target: Jak3 (Homo sapiens, UniProt P52333)
Test: Jak3 enzyme data for selected compounds
Format: biochemical
Details: read-out: JAK3 enzyme IC50

C[C@@H]1C[C@@H](Nc2ccccc2)C[C@@H]1c1ncc2cnc3[nH]ccc3n12
IC50: < 100 nM

The structures given here were assigned with low confidence; some may be wrong.
